{
  "source": "paper PMC5752445",
  "about": "“Secretory leukocyte protease inhibitor (SLPI) as a potential target for inhibiting metastasis of triple-negative breast cancers” (Oncotarget, 2017)",
  "molecules": {"B1": {"name": "Retinoblastoma tumor suppressor protein (Rb), endogenous (protein, UniProt P06400 1-928)", "chain": "MPPKTPRKTAATAAAAAAEPPAPPPPPPPEEDPEQDSGPEDLPLVRLEFEETEEPDFTALCQKLKIPDHVRERAWLTWEKVSSVDGVLGGYIQKKKELWGICIFIAAVDLDEMSFTFTELQKNIEISVHKFFNLLKEIDTSTKVDNAMSRLLKKYDVLFALFSKLERTCELIYLTQPSSSISTEINSALVLKVSWITFLLAKGEVLQMEDDLVISFQLMLCVLDYFIKLSPPMLLKEPYKTAVIPINGSPRTPRRGQNRSARIAKQLENDTRIIEVLCKEHECNIDEVKNVYFKNFIPFMNSLGLVTSNGLPEVENLSKRYEEIYLKNKDLDARLFLDHDKTLQTDSIDSFETQRTPRKSNLDEEVNVIPPHTPVRTVMNTIQQLMMILNSASDQPSENLISYFNNCTVNPKESILKRVKDIGYIFKEKFAKAVGQGCVEIGSQRYKLGVRLYYRVMESMLKSEEERLSIQNFSKLLNDNIFHMSLLACALEVVMATYSRSTSQNLDSGTDLSFPWILNVLNLKAFDFYKVIESFIKAEGNLTREMIKHLERCEHRIMESLAWLSDSPLFDLIKQSKDREGPTDHLESACPLNLPLQNNHTAADMYLSPVRSPKKKGSTTRVNSTANAETQATSAFQTQKPLKSTSLSLFYKKVYRLAYLRLNTLCERLLSEHPELEHIIWTLFQHTLQNEYELMRDRHLDQIMMCSMYGICKVKNIDLKFKIIVTAYKDLPHAVQETFKRVLIKEEEYDSIIVFYNSVFMQRLKTNILQYASTRPPTLSPIPHIPRSPYKFPSSPLRIPGGNIYISPLKSPYKISEGLPTPTKMTPRSRILVSIGESFGTSEKFQKINQMVCNSDRVLKRSAEGSNPPKPLKKLRFDIEGSDEADGSKHLPGESKFQQKLAEMTSTRTRMQKQKMNDSMDTSNKEEK"}, "B2": {"name": "VP16-FoxM1 fusion protein (pACT-FoxM1) (protein, UniProt Q08050 1-763)", "chain": "MKTSPRRPLILKRRRLPLPVQNAPSETSEEEPKRSPAQQESNQAEASKEVAESNSCKFPAGIKIINHPTMPNTQVVAIPNNANIHSIITALTAKGKESGSSGPNKFILISCGGAPTQPPGLRPQTQTSYDAKRTEVTLETLGPKPAARDVNLPRPPGALCEQKRETCADGEAAGCTINNSLSNIQWLRKMSSDGLGSRSIKQEMEEKENCHLEQRQVKVEEPSRPSASWQNSVSERPPYSYMAMIQFAINSTERKRMTLKDIYTWIEDHFPYFKHIAKPGWKNSIRHNLSLHDMFVRETSANGKVSFWTIHPSANRYLTLDQVFKPLDPGSPQLPEHLESQQKRPNPELRRNMTIKTELPLGARRKMKPLLPRVSSYLVPIQFPVNQSLVLQPSVKVPLPLAASLMSSELARHSKRVRIAPKVLLAEEGIAPLSSAGPGKEEKLLFGEGFSPLLPVQTIKEEEIQPGEEMPHLARPIKVESPPLEEWPSPAPSFKEESSHSWEDSSQSPTPRPKKSYSGLRSPTRCVSEMLVIQHRERRERSRSRRKQHLLPPCVDEPELLFSEGPSTSRWAAELPFPADSSDPASQLSYSQEVGGPFKTPIKETLPISSTPSKSVLPRTPESWRLTPPAKVGGLDFSPVQTSQGASDPLPDPLGLMDLSTTPLQSAPPLESPQRLLSSEPLDLISVPFGNSSPSDIDVPKPGSPEPQVSGLAANRSLTEGLVLDTMNDSLSKILLDISFPGLDEDPLGPDNINWSQFIPELQ"}, "B3": {"name": "VP16-SLPI fusion protein (pACT-SLPI) (natural protein, UniProt P03973 1-132, looked up)", "chain": "MKSSGLFPFLVLLALGTLAPWAVEGSGKSFKAGVCPPKKSAQCLRYKKPECQSDWQCPGKKRCCPDTCGIKCLDPVDTPNPTRRKPGKCPVTYGQCLMLNPPNFCEMDGQCKRDLKCCMGMCGKSCVSPVKA", "notes": "the legend names only pACT constructs of both; source: HEK293T, transiently transfected, mammalian two-hybrid fusion"}},
  "key": {"[1]": {"target": "T1, Retinoblastoma tumor suppressor protein (Rb), endogenous (human (endogenous in MDA-MB-231 and HEK293T)) (UniProt P06400)", "T1 sequence": "B1 chain", "assay": "co-IP; endogenous proteins in total cell lysates of MDA-MB-231 and HEK293T; lysis buffer Tris-HCl 50 mM pH 7.4, NaCl 150 mM, NP-40 1%, SDS 0.1%, Na-deoxycholate 0.5%, EDTA 1 mM; lysates pre-cleared with IgG; anti-RB or anti-SLPI antibodies on Sepharose-A beads, both directions; control IgG"}, "[2]": {"target": "Secretory leukocyte protease inhibitor (SLPI), endogenous (human (endogenous in MDA-MB-231 and HEK293T)) (UniProt P03973)", "assay": "co-IP; endogenous proteins in total cell lysates of MDA-MB-231 and HEK293T; lysis buffer Tris-HCl 50 mM pH 7.4, NaCl 150 mM, NP-40 1%, SDS 0.1%, Na-deoxycholate 0.5%, EDTA 1 mM; lysates pre-cleared with IgG; anti-RB or anti-SLPI antibodies on Sepharose-A beads, both directions; control IgG"}, "[3]": {"target": "T2, GAL4-Rb fusion protein (pBIND-Rb) (UniProt P06400)", "T2 sequence": "B1 chain", "assay": "two-hybrid; mammalian two-hybrid in HEK293T: pBIND (GAL4 DNA-binding domain) and pACT (VP16 activation domain) fusions with pG5luc reporter; luciferase read 48 h after transfection; negative controls pBIND and pACT vectors"}, "[4]": {"target": "T2, GAL4-Rb fusion protein (pBIND-Rb)", "assay": "two-hybrid; mammalian two-hybrid in HEK293T with pBIND-Rb and pACT-FoxM1; recombinant SLPI added to the cell medium at 1.5 µg/mL, reporter followed over time"}, "[5]": {"target": "T3, VP16-FoxM1 fusion protein (pACT-FoxM1) (UniProt Q08050)", "T3 sequence": "B2 chain", "assay": "two-hybrid; mammalian two-hybrid in HEK293T: pBIND (GAL4 DNA-binding domain) and pACT (VP16 activation domain) fusions with pG5luc reporter; luciferase read 48 h after transfection; negative controls pBIND and pACT vectors"}},
  "note": "These are yes or no findings as the source states them, for the method shown. For some assays here: In cells and extracts the contact can be indirect. Some results given as binding are weak or reduced against the parent protein; the word gives no strength. For some assays here: Sequences can lack the tags named with a protein.",
  "data": [
    {"molecule": "Secretory leukocyte protease inhibitor (SLPI), endogenous (from UniProt P03973 26-132)", "values": [
      {"measurement": "binding", "setting": "[1]", "result": "binds"}
    ]},
    {"molecule": "B1", "values": [
      {"measurement": "binding", "setting": "[2]", "result": "binds"}
    ]},
    {"molecule": "B2", "values": [
      {"measurement": "binding", "setting": "[3]", "result": "binds"},
      {"measurement": "binding", "setting": "[4]", "result": "binds"}
    ]},
    {"molecule": "B3", "values": [
      {"measurement": "binding", "setting": "[5]", "result": "no binding"}
    ]}
  ]
}
